PubChem BioAssay AID686937, Drosophila RNAi Screening Center, 2013
The screen tested about 23,000 reagents; this is a random part of those that have a named target and a result. 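Reduced-secretion tags in replicate 1 do not always agree with the z-scores; no criterion for assigning the tags was given.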 Reagents against one gene are numbered here. Names joined by + are all predicted targets of the reagent. Not all columns of the deposit are shown. Not stated in the record: the amount of reagent.

Aim: 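Knock-downs that reduce output of a secreted reporter enzyme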 (primary screen)
System: Drosophila S2 cells expressing secreted horseradish peroxidase
Knock-down reagent: long dsRNA against Drosophila genes
Duration: about 5.5 days (5 days dsRNA, then 12 h reporter induction)
Conditions: reporter expression induced after 5 days of dsRNA, read 12 h later; inducer not stated
Read-out: 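Chemiluminescent measurement of peroxidase in the medium 12 h after reporter induction, following 5 days of dsRNA, given as a z-score per plate; higher means more secretion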
Scale: z-score: higher = more reporter secreted into medium

CG11777
- z-score, replicate 1: 0.43

Amyrel (Amylase related)
- z-score, replicate 1: 0.19

betaTub56D (beta-Tubulin at 56D)
- z-score, replicate 1: -1.73

CG15386 + CG42371
- z-score, replicate 1: 0.24

CG2113
- z-score, replicate 1: 0.35

mei-P22 (meiotic P22)
- z-score, replicate 1: 0.28

CG13794
- z-score, replicate 1: 0.27

Prp3 (Precursor RNA processing 3)
- z-score, replicate 1: -3.21

CG7016
- z-score, replicate 1: 0.41

CG13032
- z-score, replicate 1: 0.41

GAPsec (GTPase activating protein, SECIS-dependent read-through)
- z-score, replicate 1: 0.13

CG32988
- z-score, replicate 1: 0.59

CG10357
- z-score, replicate 1: 0.32

CG34396 #1
- z-score, replicate 1: 0.3

CG34396 #2
- z-score, replicate 1: 0.19

Gip (GIP-like)
- z-score, replicate 1: -2.14

Rgk2 (Rad, Gem/Kir family member 2) #1
- z-score, replicate 1: 0.3

Rgk2 (Rad, Gem/Kir family member 2) #2
- z-score, replicate 1: -0.66

Dmtn (Dementin)
- z-score, replicate 1: 0.37

Obp56d (Odorant-binding protein 56d)
- z-score, replicate 1: 0.27

Kat60 (Katanin 60)
- z-score, replicate 1: 0.35

Atg12 (Autophagy-related 12)
- z-score, replicate 1: 0.59

PGAP3 (Post-GPI attachment to proteins 3)
- z-score, replicate 1: 0.03

CG30050
- z-score, replicate 1: -0.75

CG12608
- z-score, replicate 1: -0.12

Jhbp4 (Juvenile hormone binding protein 4)
- z-score, replicate 1: 0.3

Egfrap (EGFR adaptor protein) #1
- z-score, replicate 1: 0.24

Egfrap (EGFR adaptor protein) #2
- z-score, replicate 1: 0.03
